According to PubChem BioAssay AID256 (DTP/NCI, 2004):
The list does not hold the whole screen: it gathers tests that were run many times, whatever their T/C, doses with no T/C, and many T/C values between a quarter and a half above the control. Further doses and runs are listed elsewhere. T/C: endpoint of the treated group in % of that of the vehicle group. Some doses have a count of surviving animals in place of a T/C: the source files T/C as zero there, which appears to mark a toxic dose or a test without result, not a measured value. Some survivor counts are full or nearly so, which does not show that the dose was tolerated: the source hardly ever lists a survival T/C far under the control, and the zero likely stands for such cases as well. Counts of survivors are from the toxicity check (mostly the fifth day) where no day follows; animals may have died later. Schedule codes are those of the source, taken here to give the interval after Q, in days (D) or hours (H), and the number of doses after X. Some entries were tested several times; the results are listed from low to high. For survival time, this PubChem deposit counts one and a half times the control or more as active, and values a quarter to a half above the control carry no call in these data; other NCI protocols may use other cut-offs.

Tested on: CD2F1 mice, L1210 leukemia ip, survival T/C
Experiment: NCI In Vivo Anticancer Drug Screen. Data for tumor model L1210 Leukemia (intraperitoneal) in CD2F1 (CDF1) mice
Conditions: T/C endpoint: mean survival time, higher T/C = longer survival
In short: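 Each value reflects a quotient of treated over vehicle control outcomes in mice with a transplanted tumor.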

[1] = dose: 100.0 mg/kg/injection, schedule: Q01DX009 (ip), vehicle: saline with Tween-80
[2] = dose: 200.0 mg/kg/injection, schedule: Q01DX009 (ip), vehicle: saline with Tween-80
[3] = dose: 400.0 mg/kg/injection, schedule: Q01DX009 (ip), vehicle: saline with Tween-80
[4] = dose: 100.0 mg/kg/injection, schedule: Q01DX009 (ip), vehicle: Klucel (hydroxypropylcellulose) (HPC)
[5] = dose: 400.0 mg/kg/injection, schedule: Q01DX001 (ip), vehicle: Klucel (hydroxypropylcellulose) (HPC)
[6] = dose: 200.0 mg/kg/injection, schedule: Q04DX003 (ip), vehicle: saline with Tween-80
[7] = dose: 400.0 mg/kg/injection, schedule: Q04DX003 (ip), vehicle: saline with Tween-80

In the case of `CO[C](=O)[Hg][c]1ccc(N=Cc2ccc(N(C)C)cc2Cl)cc1`, the survivor count (dose: 12.5 mg/kg/injection, schedule: Q01DX009 (ip), vehicle: saline with Tween-80) is reported as 3 of 6, the survivor count (dose: 25.0 mg/kg/injection, schedule: Q01DX009 (ip), vehicle: saline with Tween-80) is reported as 1 of 6 and the survivor count (dose: 50.0 mg/kg/injection, schedule: Q01DX009 (ip), vehicle: saline with Tween-80) is reported as 0 of 6. The survivor count [1] was 0 of 6, the survivor count [2] was 0 of 6 and the survivor count [3] was 0 of 6.
`O=C1c2ccccc2C(=O)c2cc(N3C(=O)C=CC3=O)ccc21` was tested, and the survivor count (dose: 400.0 mg/kg/injection, schedule: Q01DX001 (ip), vehicle: saline) was 0 of 6.
For `CCCCCCC[CH2][Sn]1([CH2]CCCCCCC)[O]C2C(CO)OC(n3ccc4c(N)ncnc43)C2[O]1` (stereo unspecified), the survivor count (dose: 12.5 mg/kg/injection, schedule: Q01DX005 (ip), vehicle: other) was 1 of 6 and 4 of 6, the survivor count (dose: 25.0 mg/kg/injection, schedule: Q01DX005 (ip), vehicle: other) was 0 of 6 and the survivor count (dose: 50.0 mg/kg/injection, schedule: Q01DX005 (ip), vehicle: other) was 0 of 6. For the same compound, the survivor count (dose: 100.0 mg/kg/injection, schedule: Q01DX005 (ip), vehicle: other) was 0 of 6 and the survivor count (dose: 200.0 mg/kg/injection, schedule: Q01DX005 (ip), vehicle: other) was 0 of 6.
For `CCCC[P+](CCCC)(CCCC)Cc1ccc([N+](=O)[O-])cc1`, the survivor count (dose: 100.0 mg/kg/injection, schedule: Q01DX001 (ip), vehicle: Klucel (hydroxypropylcellulose) (HPC)) was 0 of 6, the survivor count [4] was 1 of 6 and the survivor count (dose: 100.0 mg/kg/injection, schedule: Q04DX002 (ip), vehicle: Klucel (hydroxypropylcellulose) (HPC)) was 5 of 6. The survivor count (dose: 100.0 mg/kg/injection, schedule: Q04DX003 (ip), vehicle: Klucel (hydroxypropylcellulose) (HPC)) was 3 of 6, the survivor count (dose: 200.0 mg/kg/injection, schedule: Q01DX001 (ip), vehicle: Klucel (hydroxypropylcellulose) (HPC)) was 0 of 6 and the survivor count (dose: 200.0 mg/kg/injection, schedule: Q04DX002 (ip), vehicle: Klucel (hydroxypropylcellulose) (HPC)) was 0 of 6. For the same compound, the survivor count (dose: 200.0 mg/kg/injection, schedule: Q04DX003 (ip), vehicle: Klucel (hydroxypropylcellulose) (HPC)) was 1 of 6, the survivor count [5] was 0 of 6 and the survivor count (dose: 400.0 mg/kg/injection, schedule: Q04DX002 (ip), vehicle: Klucel (hydroxypropylcellulose) (HPC)) was 0 of 6.
`NC(=O)c1nn(C2OC(CO)C(O)C2O)c2ncnc(N)c12` (stereo unspecified) was tested, and the survivor count [4] was 3 of 6 and the survivor count (dose: 200.0 mg/kg/injection, schedule: Q01DX009 (ip), vehicle: Klucel (hydroxypropylcellulose) (HPC)) was 0 of 6.
With `CCOC(=O)CC(=O)C(F)(F)F.CCOC(=O)CC(=O)C(F)(F)F.[Ni]` the survivor count (dose: 75.0 mg/kg/injection, schedule: Q01DX001 (ip), vehicle: saline) was 3 of 6 and the survivor count (dose: 300.0 mg/kg/injection, schedule: Q01DX001 (ip), vehicle: saline) was 0 of 6.
With `C=CCc1cccc(OC)c1OCCN(CC)CC` the survivor count (dose: 100.0 mg/kg/injection, schedule: Q04DX003 (ip), vehicle: saline with Tween-80) was 0 of 6, the survivor count [6] was 0 of 6 and the survivor count [7] was 0 of 6.
With `O=C1OC(=O)C2=C1C1C3C=CCC3C2N2C=CC=CC12` (stereo unspecified) the survivor count [5] was 3 of 6.
In the case of `CC(=Nc1ccccc1)C1=C(O)C(Cc2ccccc2)NC1=O` (stereo unspecified), the T/C [1] is reported as 129 % of control, the T/C [2] is reported as 126 and 134 % of control and the survivor count [3] is reported as 3 of 6.
With `c1ccc2[s+]cccc2c1` the survivor count [6] was 2 of 6 and the survivor count [7] was 0 of 6.
For `COc1cc2c3cc1Oc1c(OC)c(OC)cc4c1[C@@H](Cc1ccc(O)c(c1)Oc1ccc(cc1)C[C@@H]3N(C)CC2)N(C)CC4`, the survivor count (dose: 300.0 mg/kg/injection, schedule: Q01DX001 (ip), vehicle: other) was 1 of 6.
For `CC(C)(C)C(=O)O`, the survivor count (dose: 400.0 mg/kg/injection, schedule: Q01DX009 (ip), vehicle: saline) was 0 of 6.
With `O=C1C=CC(=NCl)C=C1` the survivor count (dose: 10.0 mg/kg/injection, schedule: Q04DX003 (ip), vehicle: saline with Tween-80) was 0 of 6.
In the case of `C=Cc1cnc([N+](=O)[O-])n1C`, the survivor count (dose: 400.0 mg/kg/injection, schedule: Q01DX009 (ip), vehicle: Klucel (hydroxypropylcellulose) (HPC)) is reported as 0 of 6.
In the case of `CN(C)C1=NC1(C)C.CN(C)C1=NC1(C)C.[Cl][Pd][Cl]`, the survivor count (dose: 200.0 mg/kg/injection, schedule: Q04DX003 (ip), vehicle: distilled water + Tween-80) is reported as 1 of 5.
In the case of `Oc1ccc2c3c1OC1C(O)C=CC4C(C2)NCCC341` (stereo unspecified), the survivor count (dose: 200.0 mg/kg/injection, schedule: Q04DX003 (ip), vehicle: DMSO) is reported as 1 of 3 and the survivor count (dose: 400.0 mg/kg/injection, schedule: Q04DX003 (ip), vehicle: DMSO) is reported as 0 of 3.
In the case of `COC1=C(C)C(=O)C2=C(C1=O)C(COC(N)=O)C(=O)C1NC1CN2C` (stereo unspecified), the survivor count (dose: 9.4 mg/kg/injection, schedule: Q01DX001 (ip), vehicle: carboxymethylcellulose (CMC)) is reported as 2 of 4.
`c1ccc(-c2cc3ccccc3c(-c3ccccc3)c2-c2ccccc2)cc1` was tested, and the survivor count (dose: 75.0 mg/kg/injection, schedule: Q01DX001 (ip), vehicle: other) was 6 of 6.
With `COc1cccc2c1C(=N)c1c(O)c3c(c(O)c1C2=O)C[C@@](O)(C(C)=O)C[C@@H]3OC1CC(N)C(O)C(C)O1` (stereo partly specified) the T/C (dose: 1.0 mg/kg/injection, schedule: Q01DX009 (ip), vehicle: saline) was 128 % of control, the T/C (dose: 8.0 mg/kg/injection, schedule: Q01DX009 (ip), vehicle: saline) was 138 % of control and the survivor count (dose: 16.0 mg/kg/injection, schedule: Q01DX009 (ip), vehicle: saline) was 5 of 6 and 6 of 6.
